From PubChem BioAssay AID504444 (National Center for Advancing Translational Sciences (NCATS), 2011)
About 7,500 (2.1%) of roughly 360,000 compounds were called active. The inconclusive results got no clear call from the source; some entries with a clear call stand among them for comparison. Calls follow the shape of the dose curve; as a rule, active = well fitted inhibition curve with a large enough effect; inconclusive = small, poorly fitted or top-dose-only effect, or effect the other way; inactive = flat fitted curve, though single readings scatter. Potencies of inconclusive entries are doubtful fits and often do not repeat. Square brackets hold non-standard residues; d marks the D form. Peptide text beside a SMILES is read from it. * marks the point of attachment. ξ: configuration not given here. Boc = CC(C)(C)OC(=O)*; ξP = O=C(O)C1CCCN1; Sar = CNCC(=O)O
Potency is read from the fitted curve at half-maximal effect.

Assay: Nrf2 qHTS screen for inhibitors; also: nearly all actives have a fitted effect of over 60% in size
Conditions: A549 ARE-Fluc reporter, luciferase luminescence, 18-24 h; series mostly up to 46 µM
Summary of the method: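 Nrf2 activity is the BugLite luminescence, read 15 min after reagent at room temperature, following CellTiter-Fluor cytotoxicity readout (30 min, 37C). Compound titrations were applied for 18-24 h to 5000 A549 ARE_Fluc cells/well in 5% FBS OPTI-MEM.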
With `CCCNC(=O)c1c(N)n(-c2cccc(OC)c2)c2nc3ccccc3nc12` the Potency was inconclusive: 9.2 µM [falling, partial curve].
In the case of `Cc1ccc(S(=O)(=O)N2CCOCC2)cc1C(=O)N(C)CCOc1ccc(Cl)cc1`, the Potency was inconclusive: 20.6 µM [falling, partial curve, poor fit].
With `Cc1cc(OCC(=O)Nc2ccncc2)cc(C)c1Br` the Potency was active: 9.2 µM.
With `O=C(COc1cccc2c1CCN(Cc1ccc(Cl)cc1)C2=O)N1CCOCC1` the Potency was inconclusive: 20.6 µM [falling, partial curve].
For `Cc1cc(OCCn2cc(C(=O)c3ccco3)c3ccccc32)ccc1Cl`, the Potency was inconclusive: 25.9 µM [falling, single point].
With `Cn1c(=O)c(-c2ccccc2N)nc2ccccc21` the Potency was inconclusive: 16.4 µM [activator, single point].
For `CCC[C@@H]1C[C@@H](C(=O)N[C@H]([C@@H](C)O)[C@H]2O[C@H](SC)[C@H](O)[C@@H](O)C2O)N(C)C1` (stereo partly drawn), the Potency was inconclusive: 29.1 µM [falling, single point].
For `COC(=O)[C@H](CC(C)C)NC(=O)N1CCN(c2cccc(C(F)(F)F)c2)CC1`, the Potency was inconclusive: 6.51 µM [falling, partial curve].
In the case of `Cc1ccc(NC(=O)CN(C)CC(=O)Nc2cccc(F)c2)cc1S(=O)(=O)N1CCCCCC1`, the Potency was inconclusive: 29.1 µM [falling, single point].
For `Cc1cc(C(=O)CSc2ncccn2)c(C)n1-c1cccc(F)c1`, the Potency was inconclusive: 7.31 µM [activator, partial curve].
For `Cc1c(CCC(=O)N[C@@H](CC(C)C)C(=O)O)c(=O)oc2cc3oc4c(c3cc12)CCCC4`, the Potency was inconclusive: 5.8 µM [falling, full curve].
For `Cc1ccccc1C(=O)NNC(=S)NC(=O)c1ccc(Cl)cc1Cl`, the Potency was active: 23.1 µM.
In the case of `CN(C)c1ccc(CNc2nc(-c3ccccc3)nn2S(C)(=O)=O)cc1`, the Potency was inconclusive: 20.6 µM [activator, partial curve, poor fit].
With `COc1ccc(CNC(=O)Cc2coc3ccc(C(C)C)cc23)cc1` the Potency was inconclusive: 4.61 µM [falling, partial curve, poor fit].
With `CC(=O)Nc1nonc1-c1nc2ccccc2n1Cc1ccccc1` the Potency was inconclusive: 14.6 µM [activator, partial curve].
With `Cc1ccc(/C=C2\CCn3c2nc2cc(C(=O)O)ccc2c3=O)c(C)c1` the Potency was inconclusive: 18.4 µM [activator, single point].
For `CCOC(=O)c1ccc(Nc2nc(C(=O)OCC)nc3ccccc23)cc1`, the Potency was inconclusive: 23.1 µM [falling, single point].
With `CCN(CC(=O)Nc1ccc2c(c1)OCCO2)S(=O)(=O)c1ccc(F)cc1` the Potency was “inactive”.
With `Cc1cc(Nc2cc(Cl)ccc2C)n2nc(Cc3ccccc3)nc2n1` the Potency was inconclusive: 20.6 µM [falling, partial curve, poor fit].
With `CC(=O)c1cc(Cl)ccc1OCC(=O)Nc1cccc(S(=O)(=O)N2CCCC2)c1` the Potency was inconclusive: 29.1 µM [falling, single point].
In the case of `COc1ccccc1Nc1nc2ccc(C)cc2n2cnnc12`, the Potency was inconclusive: 14.6 µM [activator, partial curve, poor fit].
For `CN(C)CCCN1C(=O)C2CCc3[nH]c4ccccc4c3C2C1=O` (stereo not drawn), the Potency was inconclusive: 4.11 µM [falling, single point].
With `CCCn1c(O)c(/C=C2\C=NN=C2c2ccccc2)sc1=S` the Potency was inconclusive: 29.1 µM [falling, single point].
In the case of `O=C(CSc1ccccc1)Nc1ccc2c(c1)OCCO2`, the Potency was inconclusive: 1.64 µM [activator, full curve].
With `O=[N+]([O-])c1ccccc1N/N=C\c1ccccc1F` the Potency was inconclusive: 2.06 µM [activator, single point].
In the case of `CCOc1ccc(CCN2C(=S)N([C@@H](CC(C)C)CN3CCCC3CN3C(=S)NC[C@@H]3CC(C)C)C[C@@H]2Cc2ccc(O)cc2)cc1` (stereo partly drawn), the Potency was inconclusive: 20.6 µM [falling, single point].
In the case of `Cc1ccc(C(=O)Nc2cccc(C(=O)O)c2)cc1`, the Potency was inconclusive: 1.03 µM [activator, full curve, poor fit].
With `O=C1/C(=C/c2ccc(Cl)cc2)NC(=S)N1Cc1cccnc1` the Potency was inconclusive: 20.6 µM [falling, single point].
For `O=C(CCC(=O)NNC(=O)COc1ccccc1)NCc1ccccc1`, the Potency was “inactive”.
For `Nc1c(Cl)ncnc1NCc1ccccc1`, the Potency was inconclusive: 16.4 µM [falling, single point].
For `CS(=O)(=O)c1ccc2nc(NC(=O)c3ccco3)sc2c1`, the Potency was inconclusive: 6.51 µM [activator, partial curve].
With `COc1ccc(-n2cc(C(=O)NCc3ccc(Cl)cc3)c3ccccc3c2=O)cc1` the Potency was inconclusive: 29.1 µM [activator, single point].
With `Cc1noc(C)c1COc1ccccc1C(=O)N(C)CC(=O)Nc1ccc(F)c(F)c1F` the Potency was “inactive”.
In the case of `O=C(Nc1ccc(-c2nc3ccccc3s2)cc1)C1=COCCO1`, the Potency was inconclusive: 29.1 µM [falling, single point].
In the case of `O=C(c1ccccc1)c1cccc[n+]1[O-]`, the Potency was inconclusive: 29.1 µM [falling, single point].
For `Cc1ccc2c(c1)c1c(c(=O)n(-c3ccccc3)c(=O)n1CC(=O)NCCC1=CCCCC1)n2C`, the Potency was “inactive”.
For `CC1CN(C(=O)CCC(=O)NCc2cccs2)c2cc(Cl)ccc2O1` (stereo not drawn), the Potency was inconclusive: 29.1 µM [activator, single point].
With `CCOC(=O)C1=C(CN2CCN(c3cc(C)ccc3C)CC2)NC(=O)NC1c1ccccc1` (stereo not drawn) the Potency was inconclusive: 29.1 µM [falling, single point].
For `Fc1ccc(N2CCN(Cc3cnc(Cl)s3)CC2)cc1`, the Potency was inconclusive: 0.411 µM [falling, full curve, poor fit].
With `CCOC(=O)c1cc(-c2ccc(C)cc2)n(CC(=O)Nc2ccc(OC)c(Cl)c2)c1C` the Potency was inconclusive: 29.1 µM [falling, single point].
In the case of `COc1cccc(OC)c1C(=O)OCC(=O)N(c1ccccc1)C1CCCCC1`, the Potency was inconclusive: 20.6 µM [falling, partial curve, poor fit].
With `Cc1nc2ccc(Br)cc2c2c1CC(CBr)O2` (stereo not drawn) the Potency was inconclusive: 29.1 µM [falling, single point].
For `CCOc1cc2c(C#N)c(N3CCOCC3)nc(N)c2c(N)n1`, the Potency was “inactive”.
In the case of `Cc1ccc(C2(c3ccc(C)cc3)NC(=O)N(Cc3c(C)noc3C)C2=O)cc1`, the Potency was inconclusive: 29.1 µM [falling, single point].
In the case of `CCOc1ccc(NC(=O)c2csc3c2CCCC3)cc1`, the Potency was inconclusive: 3.26 µM [activator, partial curve].
With `CCCc1cc(=O)n2nc(N3CCC(C(=O)N4CCN(c5cccc(OC)c5)CC4)CC3)sc2n1` the Potency was inconclusive: 18.4 µM [falling, single point].
In the case of `COc1ccc(N2CCN(c3nc4c(C)cccn4c(=O)c3/C=C(\C#N)C(N)=O)CC2)cc1`, the Potency was inconclusive: 7.31 µM [falling, partial curve].
With `CCC(=O)NC(=Nc1nc2ccccc2s1)NC(=O)CC` the Potency was inconclusive: 4.11 µM [activator, full curve].
In the case of `Cc1ccc(C(C)C)c(OCC(=O)Nc2nc3c(s2)CCCC3)c1`, the Potency was inconclusive: 6.51 µM [activator, full curve].
In the case of `CCOC(=O)CN(C)C(=O)C1CCCN1C(=O)OC(C)(C)C` (stereo not drawn) (Boc-[ξP]-[Sar]-OEt), the Potency was inconclusive: 0.184 µM [activator, full curve, poor fit].
For `Cn1nc(NC(=O)C(F)(F)F)c2ncc(-c3ccc(Cl)cc3)nc21`, the Potency was inconclusive: 3.66 µM [activator, partial curve].
In the case of `Nc1nonc1C(=O)NCCNc1ncccc1[N+](=O)[O-]`, the Potency was active: 18.4 µM.
With `O=C(COc1ccc(F)cc1)Nc1nnc(-c2ccncc2)s1` the Potency was inconclusive: 36.6 µM [falling, partial curve, poor fit].
For `CC(=O)Nc1ccc(S(=O)(=O)NCCSCc2ccccc2Cl)cc1`, the Potency was active: 10.3 µM.
With `CCOc1cc(Br)cc(C(c2c(C(=O)O)[nH]c3ccccc23)c2c(C(=O)O)[nH]c3ccccc23)c1O` the Potency was “inactive”.
With `O=C(Nc1cccc(C(F)(F)F)c1)c1ccc(N2CCNCC2)c([N+](=O)[O-])c1` the Potency was inconclusive: 2.91 µM [falling, partial curve, poor fit].
With `CCc1ccc2oc(C(=O)NCCc3ccc(OC)c(OC)c3)cc(=O)c2c1` the Potency was inconclusive: 29.1 µM [falling, single point].
With `COc1ccccc1N1CCN(S(=O)(=O)c2cc(-c3cc(C)no3)ccc2C)CC1` the Potency was inconclusive: 6.51 µM [falling, single point].
In the case of `COc1cccc(CN2C(=O)C3(SCC(=O)N3c3cc(C)cc(C)c3)c3ccccc32)c1` (stereo not drawn), the Potency was inconclusive: 13 µM [falling, partial curve, poor fit].
In the case of `CCOC(=O)C1(Cc2ccccc2C(F)(F)F)CCN(Cc2ccc(COC)o2)CC1`, the Potency was inconclusive: 16.4 µM [falling, single point].
For `O=C1CCC(CCC(=O)N2CCCC(C(=O)c3cccc(C(F)(F)F)c3)C2)=NN1` (stereo not drawn), the Potency was inconclusive: 13 µM [activator, partial curve, poor fit].
With `Cc1cc(C(=O)Nc2ccc3c(c2)OCCO3)ccc1[N+](=O)[O-]` the Potency was inconclusive: 0.326 µM [activator, full curve].
With `O=C(O)c1ccc(OS(=O)(=O)c2cccc(C(F)(F)F)c2)cc1` the Potency was inconclusive: 18.4 µM [falling, single point].
